Assay results taken from publication PMC4392246, “Structure of a BAG6 (Bcl-2-associated Athanogene 6)-Ubl4a (Ubiquitin-like Protein 4a) Complex Reveals a Novel Binding Interface That Functions in Tail-anchored Protein Biogenesis*” (The Journal of Biological Chemistry, 2015).
No constants are given. Whether binding was seen depends on the method and setting. Tags and fused reporters may be left off the sequences shown.

Molecular target: GST-tagged BAG domain of BAG5 (Homo sapiens)
Assay: pull-down; GST-tagged BAG or BAGS domains on glutathione-Sepharose beads, washed with buffer B, mixed with purified Ubl4a proteins in vitro; immunoblot; both purified

- binding: no binding
B1: recombinant FLAG-tagged Ubl4a (full-length) (protein, UniProt P11441 1-157)
chain: MQLTVKALQGRECSLQVPEDELVSTLKQLVSEKLNVPVRQQRLLFKGKALADGKRLSDYSIGPNSKLNLVVKPLEKVLLEEGEAQRLADSPPPQVWQLISKVLARHFSAADASRVLEQLQRDYERSLSRLTLDDIERLASRFLHPEVTETMEKGFSK
